Data published in patent US5750413 (dated 1998).

Assay: peptide synthesis
Settings: late stage modification step

Substance	step yield [%]
[O-(N-(2-BOC-aminoethyl)aminosuccinyl)Thr]^2 cyclosporine	93
[(3-(R)-Methyl-5-allyl-2-tetrahydrofuranyl)sarcosyl]^1 [Thr]^2 cyclosporine	73.6
